Results published in the supplement of paper PMC10849652.
This is one part of the list.

By UniProt entry, the sequences of proteins in these tests, tags left out. Where a name states a change or a piece, a line headed by the entry shows the natural chain unless it says otherwise.
UniProt Q8TAX7: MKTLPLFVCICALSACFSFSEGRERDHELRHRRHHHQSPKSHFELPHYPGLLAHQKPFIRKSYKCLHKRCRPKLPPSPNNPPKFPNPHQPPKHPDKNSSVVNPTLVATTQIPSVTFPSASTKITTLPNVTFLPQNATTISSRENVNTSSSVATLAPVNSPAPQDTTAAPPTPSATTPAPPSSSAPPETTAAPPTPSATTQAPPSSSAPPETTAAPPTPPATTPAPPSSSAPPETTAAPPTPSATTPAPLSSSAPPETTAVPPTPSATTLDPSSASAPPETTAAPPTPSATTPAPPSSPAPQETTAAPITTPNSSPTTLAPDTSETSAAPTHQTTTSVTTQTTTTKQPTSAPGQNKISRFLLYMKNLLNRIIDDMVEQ
UniProt Q14764, whole entry, looked up: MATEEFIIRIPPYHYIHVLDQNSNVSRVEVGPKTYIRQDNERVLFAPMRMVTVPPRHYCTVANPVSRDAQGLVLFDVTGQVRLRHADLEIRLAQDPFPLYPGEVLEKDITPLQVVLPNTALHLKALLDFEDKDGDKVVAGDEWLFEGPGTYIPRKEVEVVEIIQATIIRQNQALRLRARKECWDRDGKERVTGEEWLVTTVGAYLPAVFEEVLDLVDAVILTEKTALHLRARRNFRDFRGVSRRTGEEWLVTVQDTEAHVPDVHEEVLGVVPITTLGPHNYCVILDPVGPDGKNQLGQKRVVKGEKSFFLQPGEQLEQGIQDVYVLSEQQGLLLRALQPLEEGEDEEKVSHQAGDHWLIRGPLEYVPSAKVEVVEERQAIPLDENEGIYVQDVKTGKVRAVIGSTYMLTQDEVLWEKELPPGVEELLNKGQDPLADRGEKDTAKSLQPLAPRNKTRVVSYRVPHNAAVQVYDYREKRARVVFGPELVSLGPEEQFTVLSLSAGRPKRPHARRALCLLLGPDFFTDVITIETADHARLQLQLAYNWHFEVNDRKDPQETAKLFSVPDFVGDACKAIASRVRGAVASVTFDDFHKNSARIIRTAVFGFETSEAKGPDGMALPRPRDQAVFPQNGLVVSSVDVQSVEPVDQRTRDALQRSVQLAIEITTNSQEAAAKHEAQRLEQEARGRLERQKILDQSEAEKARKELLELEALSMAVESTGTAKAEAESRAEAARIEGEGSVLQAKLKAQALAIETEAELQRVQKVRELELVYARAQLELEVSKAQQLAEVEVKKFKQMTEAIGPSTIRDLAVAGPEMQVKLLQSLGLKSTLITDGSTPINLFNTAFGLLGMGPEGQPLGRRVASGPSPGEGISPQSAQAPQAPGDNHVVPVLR
UniProt Q93083: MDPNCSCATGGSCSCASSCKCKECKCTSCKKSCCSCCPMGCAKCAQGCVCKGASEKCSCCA
UniProt Q9NXD2: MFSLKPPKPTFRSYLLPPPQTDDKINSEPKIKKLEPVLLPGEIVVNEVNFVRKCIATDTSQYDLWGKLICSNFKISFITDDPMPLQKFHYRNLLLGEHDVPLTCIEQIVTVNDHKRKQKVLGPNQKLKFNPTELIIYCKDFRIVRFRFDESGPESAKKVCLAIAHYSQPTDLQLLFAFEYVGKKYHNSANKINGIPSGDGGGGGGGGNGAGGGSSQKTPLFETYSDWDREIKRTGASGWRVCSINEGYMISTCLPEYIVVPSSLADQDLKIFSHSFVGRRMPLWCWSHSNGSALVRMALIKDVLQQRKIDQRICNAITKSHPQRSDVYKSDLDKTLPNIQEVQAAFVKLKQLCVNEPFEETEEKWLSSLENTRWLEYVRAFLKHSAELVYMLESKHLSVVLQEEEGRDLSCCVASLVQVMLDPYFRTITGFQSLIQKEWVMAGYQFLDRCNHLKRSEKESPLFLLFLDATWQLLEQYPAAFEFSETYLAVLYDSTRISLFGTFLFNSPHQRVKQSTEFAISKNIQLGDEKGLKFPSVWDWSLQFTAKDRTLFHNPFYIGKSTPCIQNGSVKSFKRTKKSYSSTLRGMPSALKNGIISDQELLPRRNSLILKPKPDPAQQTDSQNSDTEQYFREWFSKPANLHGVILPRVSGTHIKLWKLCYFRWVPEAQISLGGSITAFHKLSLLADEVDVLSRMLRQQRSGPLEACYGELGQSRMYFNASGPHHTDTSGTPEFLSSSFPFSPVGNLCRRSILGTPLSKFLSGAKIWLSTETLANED
UniProt Q9BRK3: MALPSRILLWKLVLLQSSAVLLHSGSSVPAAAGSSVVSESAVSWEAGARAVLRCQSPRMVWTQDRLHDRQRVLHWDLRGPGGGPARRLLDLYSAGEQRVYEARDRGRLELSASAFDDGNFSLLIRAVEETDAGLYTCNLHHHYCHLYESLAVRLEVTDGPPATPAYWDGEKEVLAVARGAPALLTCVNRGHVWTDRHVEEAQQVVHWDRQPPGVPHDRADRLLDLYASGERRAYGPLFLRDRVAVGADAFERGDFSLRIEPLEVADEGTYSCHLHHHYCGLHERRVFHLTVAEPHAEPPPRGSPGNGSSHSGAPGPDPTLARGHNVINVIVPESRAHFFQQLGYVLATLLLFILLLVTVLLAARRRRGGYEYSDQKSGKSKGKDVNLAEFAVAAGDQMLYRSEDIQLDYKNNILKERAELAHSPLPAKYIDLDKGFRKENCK
UniProt Q6P444: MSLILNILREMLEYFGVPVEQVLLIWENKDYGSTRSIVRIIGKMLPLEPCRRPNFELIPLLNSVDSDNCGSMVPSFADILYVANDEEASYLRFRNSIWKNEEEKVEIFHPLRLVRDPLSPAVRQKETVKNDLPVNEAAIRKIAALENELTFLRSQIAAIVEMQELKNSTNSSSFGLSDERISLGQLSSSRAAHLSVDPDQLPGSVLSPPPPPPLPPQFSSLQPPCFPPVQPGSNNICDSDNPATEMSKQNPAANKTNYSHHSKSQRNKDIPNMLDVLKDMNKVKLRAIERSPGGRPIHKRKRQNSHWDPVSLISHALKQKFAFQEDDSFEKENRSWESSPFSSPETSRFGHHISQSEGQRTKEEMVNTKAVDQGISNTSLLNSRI
UniProt Q96DP5: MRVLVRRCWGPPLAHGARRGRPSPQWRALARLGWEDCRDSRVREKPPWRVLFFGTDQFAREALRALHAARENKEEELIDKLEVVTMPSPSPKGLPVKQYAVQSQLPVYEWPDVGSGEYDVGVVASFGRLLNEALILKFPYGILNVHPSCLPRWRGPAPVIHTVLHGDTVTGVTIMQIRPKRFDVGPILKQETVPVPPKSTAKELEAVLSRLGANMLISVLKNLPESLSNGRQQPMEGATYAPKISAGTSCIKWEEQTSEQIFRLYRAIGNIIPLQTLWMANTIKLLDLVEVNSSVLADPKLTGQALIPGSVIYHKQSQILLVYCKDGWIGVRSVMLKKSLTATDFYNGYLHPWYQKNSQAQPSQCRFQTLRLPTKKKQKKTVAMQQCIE
UniProt Q9UJ68: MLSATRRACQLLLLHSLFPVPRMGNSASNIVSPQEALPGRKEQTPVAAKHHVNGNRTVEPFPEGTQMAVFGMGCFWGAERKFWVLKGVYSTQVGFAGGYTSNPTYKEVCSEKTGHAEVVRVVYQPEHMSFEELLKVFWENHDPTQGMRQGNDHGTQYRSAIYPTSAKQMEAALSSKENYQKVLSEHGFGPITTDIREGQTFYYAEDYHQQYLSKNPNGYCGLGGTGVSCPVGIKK
UniProt Q9NPC7: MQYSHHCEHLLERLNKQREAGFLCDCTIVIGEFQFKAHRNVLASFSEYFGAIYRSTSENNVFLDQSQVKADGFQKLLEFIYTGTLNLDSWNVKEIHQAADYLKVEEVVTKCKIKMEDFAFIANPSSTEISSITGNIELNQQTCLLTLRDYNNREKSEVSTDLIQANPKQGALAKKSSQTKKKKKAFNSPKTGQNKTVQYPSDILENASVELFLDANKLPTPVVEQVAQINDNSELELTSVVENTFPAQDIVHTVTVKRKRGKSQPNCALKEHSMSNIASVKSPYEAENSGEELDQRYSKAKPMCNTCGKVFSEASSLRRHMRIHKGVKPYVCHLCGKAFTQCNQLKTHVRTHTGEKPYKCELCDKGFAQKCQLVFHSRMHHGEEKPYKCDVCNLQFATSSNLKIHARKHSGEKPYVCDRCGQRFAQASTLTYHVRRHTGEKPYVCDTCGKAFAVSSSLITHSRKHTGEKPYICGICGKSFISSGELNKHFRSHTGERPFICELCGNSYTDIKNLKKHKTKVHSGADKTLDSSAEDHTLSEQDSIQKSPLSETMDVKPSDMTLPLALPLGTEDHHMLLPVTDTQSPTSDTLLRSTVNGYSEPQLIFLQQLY
UniProt P13533, whole entry, looked up: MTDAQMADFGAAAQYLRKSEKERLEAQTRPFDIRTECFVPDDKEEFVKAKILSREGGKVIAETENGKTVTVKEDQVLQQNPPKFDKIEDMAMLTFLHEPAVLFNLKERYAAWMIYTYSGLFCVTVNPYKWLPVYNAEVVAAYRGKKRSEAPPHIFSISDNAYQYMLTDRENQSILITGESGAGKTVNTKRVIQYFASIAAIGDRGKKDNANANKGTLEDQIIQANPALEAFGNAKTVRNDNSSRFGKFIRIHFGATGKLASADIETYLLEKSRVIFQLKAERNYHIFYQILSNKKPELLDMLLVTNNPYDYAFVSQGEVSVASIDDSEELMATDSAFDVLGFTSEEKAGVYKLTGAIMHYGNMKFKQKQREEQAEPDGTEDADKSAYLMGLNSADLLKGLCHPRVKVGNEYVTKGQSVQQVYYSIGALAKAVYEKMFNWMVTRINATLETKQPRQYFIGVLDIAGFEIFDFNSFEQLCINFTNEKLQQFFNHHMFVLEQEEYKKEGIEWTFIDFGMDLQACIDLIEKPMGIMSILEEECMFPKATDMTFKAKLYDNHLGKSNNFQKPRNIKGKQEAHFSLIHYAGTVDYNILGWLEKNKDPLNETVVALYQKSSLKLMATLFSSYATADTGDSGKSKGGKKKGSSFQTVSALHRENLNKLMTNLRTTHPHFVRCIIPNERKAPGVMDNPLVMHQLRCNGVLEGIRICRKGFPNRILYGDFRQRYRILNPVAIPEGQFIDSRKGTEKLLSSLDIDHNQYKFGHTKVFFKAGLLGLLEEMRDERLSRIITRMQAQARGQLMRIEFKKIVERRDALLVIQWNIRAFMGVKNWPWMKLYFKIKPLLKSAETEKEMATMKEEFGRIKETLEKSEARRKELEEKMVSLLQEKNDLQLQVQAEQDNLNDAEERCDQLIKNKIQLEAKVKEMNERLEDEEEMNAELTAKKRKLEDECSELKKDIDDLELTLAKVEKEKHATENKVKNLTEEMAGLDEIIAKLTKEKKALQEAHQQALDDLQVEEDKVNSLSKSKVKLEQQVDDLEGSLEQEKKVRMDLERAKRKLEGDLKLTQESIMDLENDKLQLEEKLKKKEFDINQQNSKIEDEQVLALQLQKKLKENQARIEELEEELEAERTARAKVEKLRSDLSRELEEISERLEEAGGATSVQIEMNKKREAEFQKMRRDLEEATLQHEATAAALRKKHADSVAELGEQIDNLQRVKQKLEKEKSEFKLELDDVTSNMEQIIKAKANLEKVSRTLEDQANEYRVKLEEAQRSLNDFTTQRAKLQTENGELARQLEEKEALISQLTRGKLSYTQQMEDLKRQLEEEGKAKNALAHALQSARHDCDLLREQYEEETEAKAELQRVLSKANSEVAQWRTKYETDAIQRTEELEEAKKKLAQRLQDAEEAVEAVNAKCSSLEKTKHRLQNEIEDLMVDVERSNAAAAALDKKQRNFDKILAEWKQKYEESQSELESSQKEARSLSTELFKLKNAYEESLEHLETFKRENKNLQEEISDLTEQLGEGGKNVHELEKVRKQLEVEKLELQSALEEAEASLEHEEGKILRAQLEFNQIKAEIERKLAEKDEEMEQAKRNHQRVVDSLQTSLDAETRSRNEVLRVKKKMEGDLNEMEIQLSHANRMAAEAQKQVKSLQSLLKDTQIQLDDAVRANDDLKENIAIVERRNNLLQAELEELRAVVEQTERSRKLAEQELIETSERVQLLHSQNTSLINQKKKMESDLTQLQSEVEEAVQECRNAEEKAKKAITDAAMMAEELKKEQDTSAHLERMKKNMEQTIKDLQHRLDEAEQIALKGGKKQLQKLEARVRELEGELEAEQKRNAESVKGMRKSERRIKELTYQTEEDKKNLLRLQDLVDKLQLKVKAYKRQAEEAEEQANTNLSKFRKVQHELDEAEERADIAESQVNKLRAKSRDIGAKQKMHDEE
UniProt Q13126: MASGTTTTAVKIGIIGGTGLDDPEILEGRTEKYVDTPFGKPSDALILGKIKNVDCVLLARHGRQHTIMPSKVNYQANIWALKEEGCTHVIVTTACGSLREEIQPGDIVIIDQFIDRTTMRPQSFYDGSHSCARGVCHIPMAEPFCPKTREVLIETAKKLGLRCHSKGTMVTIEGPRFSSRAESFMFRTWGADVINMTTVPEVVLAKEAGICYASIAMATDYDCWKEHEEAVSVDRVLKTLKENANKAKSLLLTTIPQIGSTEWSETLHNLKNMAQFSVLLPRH

Key:
Experiment in all cases: log2 fold change, soluble protein after heating vs DMSO (PISA); higher = thermal stabilisation; K562 cells, 10 uM, 30 min; active = over 0.2 and 3.5 SD of the protein, either way, in both replicates (recomputed)
bafetinib = compound: Cc1ccc(NC(=O)c2ccc(CN3CC[C@H](N(C)C)C3)c(C(F)(F)F)c2)cc1Nc1nccc(-c2cncnc2)n1 [bafetinib]
Method in brief: (§1)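 Quantification of soluble protein used TMTpro 16plex LC-MS/MS, with channel sums equalised. Samples were the supernatant after 21,000xg for 90 min of pooled aliquots from K562 cells (2×10^6 cells/mL) treated with 10 μM compound for 30 min, heated for 3 min over 48°C-58°C, and extracted in PBS with 0.5% NP-40 at 4°C. Values, from duplicates, describe thermal stability against control samples on a log2 fold-change scale.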

nilotinib = compound: Cc1cn(-c2cc(NC(=O)c3ccc(C)c(Nc4nccc(-c5cccnc5)n4)c3)cc(C(F)(F)F)c2)cn1 [nilotinib]
Method in brief: as §1

[1] = compound: Cc1nc(Nc2n[nH]c3c2CN(C(=O)N[C@H](CN(C)C)c2ccccc2)C3(C)C)c2sccc2n1
Method in brief: as §1

[2] = compound: Cc1ncc(-c2ccnc(Nc3ccc(S(C)(=O)=O)cc3)n2)n1C(C)C
Method in brief: as §1

[3] = compound: Cn1cc(-c2ccc3nnc(C(F)(F)c4ccc5ncccc5c4)n3n2)cn1
Method in brief: as §1

[4] = compound: NC(=O)Nc1cc(-c2cccc(F)c2)sc1C(=O)N[C@H]1CCCNC1
Method in brief: as §1

entinostat = compound: Nc1ccccc1NC(=O)c1ccc(CNC(=O)OCc2cccnc2)cc1 [entinostat]
Method in brief: as §1

[5] = compound: O=C1NC(=O)C(c2cnc3ccccn23)=C1c1cn2c3c(cc(F)cc13)CN(C(=O)N1CCCCC1)CC2
Method in brief: as §1

dasatinib = compound: Cc1nc(Nc2ncc(C(=O)Nc3c(C)cccc3Cl)s2)cc(N2CCN(CCO)CC2)n1 [dasatinib]
Method in brief: as §1

[6] = compound: Cn1cc(-c2ccc3c(c2)CCN3C(=O)Cc2cccc(C(F)(F)F)c2)c2c(N)ncnc21
Method in brief: as §1

mubritinib = compound: FC(F)(F)c1ccc(/C=C/c2nc(COc3ccc(CCCCn4ccnn4)cc3)co2)cc1 [mubritinib]
Method in brief: as §1

[7] = compound: NC(=O)c1cnc(N[C@@H]2CCCC[C@@H]2N)nc1Nc1cccc(-n2nccn2)c1
Method in brief: as §1

[8] = compound: NC1(c2ccc(-c3nc4ccn5c(=O)[nH]nc5c4cc3-c3ccccc3)cc2)CCC1
Method in brief: as §1

silmitasertib = compound: O=C(O)c1ccc2c(c1)nc(Nc1cccc(Cl)c1)c1ccncc12 [silmitasertib]
Method in brief: as §1

citarinostat = compound: O=C(CCCCCCNC(=O)c1cnc(N(c2ccccc2)c2ccccc2Cl)nc1)NO [citarinostat]
Method in brief: as §1

[9] = compound: c1cc(OCCN2CCCCC2)cc(-c2n[nH]c3ccc(-c4nnc[nH]4)cc23)c1
Method in brief: as §1

[10] = compound: Cc1cccc(CC(=O)N2CCc3c2ccc(-c2cn(C)c4ncnc(N)c24)c3F)n1
Method in brief: as §1

tipifarnib = compound: Cn1cncc1[C@@](N)(c1ccc(Cl)cc1)c1ccc2c(c1)c(-c1cccc(Cl)c1)cc(=O)n2C [tipifarnib]
Method in brief: as §1

vorinostat = compound: O=C(CCCCCCC(=O)Nc1ccccc1)NO [vorinostat]
Method in brief: as §1

[11] = compound: NCC(=O)Nc1ccc(-n2nc(C(F)(F)F)cc2-c2ccc3c(ccc4ccccc43)c2)cc1
Method in brief: as §1

Measured: log2 fold change

MUC7 (UniProt Q8TAX7)
inactive: bafetinib -0.061 | nilotinib -0.284 | [1] 0.019 | [2] 0.073 | [3] 0.181 | [4] 0.863 | entinostat -0.143 | [5] -1.92

MTHFSD (UniProt Q2M296)
inactive: dasatinib 0.003 | [6] -0.138 | mubritinib -0.027 | [7] 0.035 | [8] -0.03 | silmitasertib 0.114

MVP (UniProt Q14764)
inactive: citarinostat -0.829 | [9] -0.857

Quoted from the listing (2 entries):
MUC7 (UniProt Q8TAX7)
inactive: bafetinib -0.061 | nilotinib -0.284 | [1] 0.019 | [2] 0.073 | [3] 0.181 | [4] 0.863 | entinostat -0.143 | [5] -1.92

MTHFSD (UniProt Q2M296)
inactive: dasatinib 0.003 | [6] -0.138 | mubritinib -0.027 | [7] 0.035 | [8] -0.03 | silmitasertib 0.114

The list goes on.

MT1L (UniProt Q93083)
inactive: [10] -0.159 | nilotinib -0.151 | [1] -0.091 | dasatinib 0.071 | [2] 0.169 | [3] -0.249 | tipifarnib -0.03 | mubritinib -0.157 | [7] -0.086 | [8] -0.012 | vorinostat 0.236 | citarinostat -0.04 | silmitasertib 0.309 | [9] 0.234

MTMR10 (UniProt Q9NXD2)
inactive: bafetinib 0.122 | nilotinib -0.14 | [1] -0.031 | [2] 0.064 | tipifarnib -0.041 | mubritinib 0.025 | [4] -0.057 | [8] 0.033 | entinostat -0.034 | silmitasertib 0 | [5] -0.04

MXRA8 isoform 2 (UniProt Q9BRK3)
inactive: bafetinib -0.033 | [6] 0.01 | [3] -0.029 | mubritinib 0.08 | [4] 0.105 | [7] -0.067 | [8] -0.162 | [11] -0.05 | entinostat 0.022 | silmitasertib 0.152 | [5] 0.103

MTURN (UniProt Q8N3F0)
inactive: bafetinib -0.006 | tipifarnib 0.063 | mubritinib 0.062 | [8] -0.083 | [11] 0.025 | silmitasertib -0.025

MTERF4 (UniProt Q7Z6M4)
inactive: nilotinib 0.017 | [1] 0.022 | dasatinib -0.158 | [2] -0.025 | [6] -0.179 | [3] 0.098 | tipifarnib -0.033 | mubritinib 0.051 | [4] -0.205 | [7] 0.081 | [8] -0.071 | entinostat -0.084 | silmitasertib -0.001 | [5] 0.215

MTFR2 (UniProt Q6P444)
inactive: bafetinib -0.037 | nilotinib -0.125 | [1] -0.05 | dasatinib -0.263 | [2] 0.057 | [6] -0.081 | [3] -0.087 | tipifarnib -0.016 | mubritinib 0.045 | [4] 0.026 | [7] 0.055 | [8] 0.051 | [11] 0.044 | entinostat 0.045 | citarinostat 0.076 | silmitasertib -0.17 | [5] 0.189 | [9] -0.01

MTRF1 (UniProt O75570)
inactive: [4] 0.063 | [7] -0.105 | entinostat 0.05

MTHFD2L (UniProt Q9H903)
inactive: dasatinib 0.053 | [6] 0.108 | mubritinib -0.2 | [4] -0.086 | [8] -0.15 | [11] -0.043 | entinostat -0.052 | silmitasertib -0.112 | [5] -0.126

MTSS1 isoform 5 (UniProt O43312)
inactive: tipifarnib -0.046 | mubritinib -0.358 | [7] -0.094 | [8] 0.595 | [11] 0.018 | silmitasertib -0.291

MTFMT (UniProt Q96DP5)
inactive: tipifarnib -0.308 | [4] -0.463 | [11] 0.028 | entinostat -0.216 | citarinostat 0.038 | [5] 0.161 | [9] -0.07

MSRA (UniProt Q9UJ68)
inactive: dasatinib -0.223 | tipifarnib -0.107

MYNN (UniProt Q9NPC7)
inactive: [3] -0.203 | [4] -0.244 | entinostat -0.569

MYO9A isoform 4 (UniProt B2RTY4)
inactive: bafetinib 0.016 | [10] -0.049 | dasatinib -0.046 | [4] -0.194 | [7] -0.16 | [11] -0.054 | entinostat -0.055 | vorinostat -0.012 | [5] 0.307

MYH15 (UniProt Q9Y2K3)
inactive: bafetinib -0.302 | nilotinib -0.002 | [1] 0.009 | [2] -0.373 | mubritinib 0.101 | [4] 0.152 | [8] -0.267 | entinostat -0.124 | citarinostat -0.003 | silmitasertib -0.001 | [9] 0.016

MYH6 (UniProt P13533)
inactive: [10] -0.001 | nilotinib 0.038 | [1] -0.081 | dasatinib -0.001 | [2] 0.008 | [6] -0.093 | tipifarnib -0.117 | mubritinib 0.063 | [8] 0.088 | vorinostat -0.088 | silmitasertib -0.054 | [5] -0.017

MTAP isoform 2 (UniProt Q13126)
inactive: bafetinib -0.225 | [10] -0.06 | dasatinib -0.214 | [4] 0.145 | entinostat -0.133 | vorinostat -0.032
